In ChEMBL document CHEMBL5674883, “The Heterochromatin Landscape in Migrating Cells and the Importance of H3K27me3 for Associated Transcriptome Alterations” (Cells, 2018):
This continues a long series; more values of the same kind are listed elsewhere.

By UniProt entry, the sequences of proteins in these tests, tags left out.
UniProt Q61188, whole entry: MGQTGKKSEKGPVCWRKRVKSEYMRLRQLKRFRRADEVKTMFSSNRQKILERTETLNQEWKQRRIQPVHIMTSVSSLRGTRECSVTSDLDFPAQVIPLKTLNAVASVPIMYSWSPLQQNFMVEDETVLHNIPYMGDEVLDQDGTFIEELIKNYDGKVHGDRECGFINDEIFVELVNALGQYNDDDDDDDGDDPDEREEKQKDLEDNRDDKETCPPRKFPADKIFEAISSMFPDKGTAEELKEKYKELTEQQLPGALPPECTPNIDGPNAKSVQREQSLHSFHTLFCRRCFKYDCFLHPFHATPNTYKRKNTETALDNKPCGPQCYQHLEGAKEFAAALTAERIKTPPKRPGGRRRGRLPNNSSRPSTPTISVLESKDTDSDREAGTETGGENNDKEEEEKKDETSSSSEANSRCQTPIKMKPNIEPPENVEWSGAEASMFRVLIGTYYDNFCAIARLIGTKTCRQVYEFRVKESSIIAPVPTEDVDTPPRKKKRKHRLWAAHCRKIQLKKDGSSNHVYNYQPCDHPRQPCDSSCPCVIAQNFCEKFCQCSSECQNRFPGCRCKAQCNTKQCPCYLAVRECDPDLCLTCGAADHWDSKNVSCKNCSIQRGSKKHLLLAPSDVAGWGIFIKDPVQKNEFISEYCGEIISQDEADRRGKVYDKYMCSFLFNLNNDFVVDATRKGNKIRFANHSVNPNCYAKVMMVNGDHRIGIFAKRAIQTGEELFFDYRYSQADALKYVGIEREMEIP

Legend:
Type in all cases: cell-based
[1] = target: Histone-lysine N-methyltransferase EZH2 (Mus musculus) (UniProt Q61188); experiment: Inhibition of EZH2 in mouse B16-F1 migrating cells assessed as fold change in H3K27me3-buffered regulated Bin3-mRNA expression at 3 uM measured by ChIP-seq analysis relative to control cells
[2] = target: Histone-lysine N-methyltransferase EZH2 (Mus musculus) (UniProt Q61188); experiment: Inhibition of EZH2 in mouse B16-F1 migrating cells assessed as fold change in H3K27me3-independent regulated Ankzf1-mRNA expression at 3 uM measured by ChIP-seq analysis relative to control cells
[3] = target: Histone-lysine N-methyltransferase EZH2 (Mus musculus) (UniProt Q61188); experiment: Inhibition of EZH2 in mouse B16-F1 migrating cells assessed as fold change in H3K27me3-independent regulated Celsr3-mRNA expression at 3 uM measured by ChIP-seq analysis relative to control cells
[4] = target: Histone-lysine N-methyltransferase EZH2 (Mus musculus) (UniProt Q61188); experiment: Inhibition of EZH2 in mouse B16-F1 migrating cells assessed as fold change in H3K27me3-buffered regulated Vdr-mRNA expression at 3 uM measured by ChIP-seq analysis relative to control cells
[5] = target: Histone-lysine N-methyltransferase EZH2 (Mus musculus) (UniProt Q61188); experiment: Inhibition of EZH2 in mouse B16-F1 migrating cells assessed as fold change in H3K27me3-buffered regulated Fgd6-mRNA expression at 3 uM measured by ChIP-seq analysis relative to control cells
[6] = target: Histone-lysine N-methyltransferase EZH2 (Mus musculus) (UniProt Q61188); experiment: Inhibition of EZH2 in mouse B16-F1 migrating cells assessed as fold change in H3K27me3-independent regulated Higd1a-mRNA expression at 3 uM measured by ChIP-seq analysis relative to control cells
[7] = target: Histone-lysine N-methyltransferase EZH2 (Mus musculus) (UniProt Q61188); experiment: Inhibition of EZH2 in mouse B16-F1 migrating cells assessed as fold change in H3K27me3-independent regulated Atf3-mRNA expression at 3 uM measured by ChIP-seq analysis relative to control cells
[8] = target: Histone-lysine N-methyltransferase EZH2 (Mus musculus) (UniProt Q61188); experiment: Inhibition of EZH2 in mouse B16-F1 migrating cells assessed as fold change in H3K27me3-buffered regulated Sox11-mRNA expression at 3 uM measured by ChIP-seq analysis relative to control cells
[9] = target: Histone-lysine N-methyltransferase EZH2 (Mus musculus) (UniProt Q61188); experiment: Inhibition of EZH2 in mouse B16-F1 migrating cells assessed as fold change in H3K27me3-buffered regulated Galnt7-mRNA expression at 3 uM measured by ChIP-seq analysis relative to control cells
[10] = target: Histone-lysine N-methyltransferase EZH2 (Mus musculus) (UniProt Q61188); experiment: Inhibition of EZH2 in mouse B16-F1 migrating cells assessed as fold change in H3K27me3-buffered regulated Tom1-mRNA expression at 3 uM measured by ChIP-seq analysis relative to control cells
[11] = target: Histone-lysine N-methyltransferase EZH2 (Mus musculus) (UniProt Q61188); experiment: Inhibition of EZH2 in mouse B16-F1 migrating cells assessed as fold change in H3K27me3-independent regulated Atad2-mRNA expression at 3 uM measured by ChIP-seq analysis relative to control cells
[12] = target: Histone-lysine N-methyltransferase EZH2 (Mus musculus) (UniProt Q61188); experiment: Inhibition of EZH2 in mouse B16-F1 migrating cells assessed as fold change in H3K27me3-buffered regulated Mllt10-mRNA expression at 3 uM measured by ChIP-seq analysis relative to control cells
[13] = target: T1, RNA polymerase II (Mus musculus) (UniProt P08775+Q8CFI7+P97760+A0A3Q4L2S8+Q80UW8+P61219+P62488+Q923G2+P60898+O08740+Q63871+P62876); experiment: Inhibition of RNA polymerase II in mouse B16-F1 migrating cells assessed as fold change in Plpp5-RNA stability at 0.1 mM measured by ChIP-seq analysis relative to control cells
[14] = target: T1, RNA polymerase II (Mus musculus); experiment: Inhibition of RNA polymerase II in mouse B16-F1 migrating cells assessed as fold change in Rnf169-RNA stability at 0.1 mM measured by ChIP-seq analysis relative to control cells
[15] = target: T1, RNA polymerase II (Mus musculus); experiment: Inhibition of RNA polymerase II in mouse B16-F1 migrating cells assessed as fold change in Spopl-RNA stability at 0.1 mM measured by ChIP-seq analysis relative to control cells
[16] = target: T1, RNA polymerase II (Mus musculus); experiment: Inhibition of RNA polymerase II in mouse B16-F1 migrating cells assessed as fold change in Ppp3ca-RNA stability at 0.1 mM measured by ChIP-seq analysis relative to control cells
[17] = target: T1, RNA polymerase II (Mus musculus); experiment: Inhibition of RNA polymerase II in mouse B16-F1 migrating cells assessed as fold change in Chm-RNA stability at 0.1 mM measured by ChIP-seq analysis relative to control cells
[18] = target: T1, RNA polymerase II (Mus musculus); experiment: Inhibition of RNA polymerase II in mouse B16-F1 migrating cells assessed as fold change in Map3k20-RNA stability at 0.1 mM measured by ChIP-seq analysis relative to control cells
[19] = target: T1, RNA polymerase II (Mus musculus); experiment: Inhibition of RNA polymerase II in mouse B16-F1 migrating cells assessed as fold change in Rps11-RNA stability at 0.1 mM measured by ChIP-seq analysis relative to control cells
[20] = target: T1, RNA polymerase II (Mus musculus); experiment: Inhibition of RNA polymerase II in mouse B16-F1 migrating cells assessed as fold change in Zfp958-RNA stability at 0.1 mM measured by ChIP-seq analysis relative to control cells
[21] = target: T1, RNA polymerase II (Mus musculus); experiment: Inhibition of RNA polymerase II in mouse B16-F1 migrating cells assessed as fold change in 6720489N17Rik-RNA stability at 0.1 mM measured by ChIP-seq analysis relative to control cells
[22] = target: T1, RNA polymerase II (Mus musculus); experiment: Inhibition of RNA polymerase II in mouse B16-F1 migrating cells assessed as fold change in Ktn1-RNA stability at 0.1 mM measured by ChIP-seq analysis relative to control cells
[23] = target: T1, RNA polymerase II (Mus musculus); experiment: Inhibition of RNA polymerase II in mouse B16-F1 migrating cells assessed as fold change in Rbck1-RNA stability at 0.1 mM measured by ChIP-seq analysis relative to control cells
[24] = target: T1, RNA polymerase II (Mus musculus); experiment: Inhibition of RNA polymerase II in mouse B16-F1 migrating cells assessed as fold change in Chuk-RNA stability at 0.1 mM measured by ChIP-seq analysis relative to control cells
[25] = target: T1, RNA polymerase II (Mus musculus); experiment: Inhibition of RNA polymerase II in mouse B16-F1 migrating cells assessed as fold change in Cntrl-RNA stability at 0.1 mM measured by ChIP-seq analysis relative to control cells
[26] = target: T1, RNA polymerase II (Mus musculus); experiment: Inhibition of RNA polymerase II in mouse B16-F1 migrating cells assessed as fold change in Wbp2-RNA stability at 0.1 mM measured by ChIP-seq analysis relative to control cells
[27] = target: T1, RNA polymerase II (Mus musculus); experiment: Inhibition of RNA polymerase II in mouse B16-F1 migrating cells assessed as fold change in Zfp217-RNA stability at 0.1 mM measured by ChIP-seq analysis relative to control cells
[28] = target: T1, RNA polymerase II (Mus musculus); experiment: Inhibition of RNA polymerase II in mouse B16-F1 migrating cells assessed as fold change in Sept10-RNA stability at 0.1 mM measured by ChIP-seq analysis relative to control cells
[29] = target: T1, RNA polymerase II (Mus musculus); experiment: Inhibition of RNA polymerase II in mouse B16-F1 migrating cells assessed as fold change in Atp2b1-RNA stability at 0.1 mM measured by ChIP-seq analysis relative to control cells
[30] = target: T1, RNA polymerase II (Mus musculus); experiment: Inhibition of RNA polymerase II in mouse B16-F1 migrating cells assessed as fold change in Sesn2-RNA stability at 0.1 mM measured by ChIP-seq analysis relative to control cells

In the case of CCCc1cc(C)[nH]c(=O)c1CNC(=O)c1cc(-c2ccnc(N3CCN(C)CC3)c2)cc2c1cnn2C(C)C, the log2FC [1] is reported as 0.64, the log2FC [2] is reported as -0.72 and the log2FC [3] is reported as 1.17. For the same compound, the log2FC [4] was 1.62, the log2FC [5] was -0.44 and the log2FC [6] was 0.42. For the same compound, the log2FC [7] was 0.57, the log2FC [8] was -0.59 and the log2FC [9] was -0.49. The log2FC [10] was 0.45, the log2FC [11] was -0.48 and the log2FC [12] was -0.46.
OC[C@H]1O[C@@H](n2cnc3cc(Cl)c(Cl)cc32)[C@H](O)[C@@H]1O was tested, and the log2FC [13] was 0.46, the log2FC [14] was -0.58 and the log2FC [15] was -0.63. The log2FC [16] was -0.57, the log2FC [17] was -0.92 and the log2FC [18] was -0.47. For the same compound, the log2FC [19] was 0.52, the log2FC [20] was -1.03 and the log2FC [21] was -1.97. The log2FC [22] was -0.62, the log2FC [23] was 0.38 and the log2FC [24] was -0.59. For the same compound, the log2FC [25] was -0.46, the log2FC [26] was 0.42 and the log2FC [27] was -0.68. For the same compound, the log2FC [28] was -0.45, the log2FC [29] was -0.65 and the log2FC [30] was -0.66.
